Reference: the supplement of paper PMC12819154, “High-throughput peptide-centric local stability assay extends protein–ligand identification to membrane proteins, tissues and bacteria” (Nature Structural & Molecular Biology, 2025)
The list shows a part of the results. Most values lie at the level of the controls, where differences are scatter.

The chains behind the UniProt entries cited, without tags or fusion partners. Where a name states a change or a piece, a line headed by the entry shows the natural chain unless it says otherwise.
UniProt Q8K0D5: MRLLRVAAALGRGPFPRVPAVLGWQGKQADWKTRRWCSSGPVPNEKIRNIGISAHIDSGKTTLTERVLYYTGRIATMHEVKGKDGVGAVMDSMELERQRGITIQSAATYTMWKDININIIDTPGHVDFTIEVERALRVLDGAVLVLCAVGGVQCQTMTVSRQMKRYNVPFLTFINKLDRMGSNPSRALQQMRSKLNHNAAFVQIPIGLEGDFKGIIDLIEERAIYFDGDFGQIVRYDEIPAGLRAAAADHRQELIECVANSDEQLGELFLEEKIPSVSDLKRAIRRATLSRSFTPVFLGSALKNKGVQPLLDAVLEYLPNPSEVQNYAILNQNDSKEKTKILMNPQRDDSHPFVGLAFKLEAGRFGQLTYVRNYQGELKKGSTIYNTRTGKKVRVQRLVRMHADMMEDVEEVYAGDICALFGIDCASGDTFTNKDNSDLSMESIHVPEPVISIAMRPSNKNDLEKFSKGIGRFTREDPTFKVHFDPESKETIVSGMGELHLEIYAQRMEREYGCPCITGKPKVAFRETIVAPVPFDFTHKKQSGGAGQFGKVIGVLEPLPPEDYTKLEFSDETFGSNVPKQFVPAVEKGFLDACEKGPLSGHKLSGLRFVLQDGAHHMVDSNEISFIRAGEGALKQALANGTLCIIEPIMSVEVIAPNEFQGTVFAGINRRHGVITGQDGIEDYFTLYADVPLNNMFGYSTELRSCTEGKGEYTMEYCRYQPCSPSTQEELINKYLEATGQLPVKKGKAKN
UniProt Q8CGA2: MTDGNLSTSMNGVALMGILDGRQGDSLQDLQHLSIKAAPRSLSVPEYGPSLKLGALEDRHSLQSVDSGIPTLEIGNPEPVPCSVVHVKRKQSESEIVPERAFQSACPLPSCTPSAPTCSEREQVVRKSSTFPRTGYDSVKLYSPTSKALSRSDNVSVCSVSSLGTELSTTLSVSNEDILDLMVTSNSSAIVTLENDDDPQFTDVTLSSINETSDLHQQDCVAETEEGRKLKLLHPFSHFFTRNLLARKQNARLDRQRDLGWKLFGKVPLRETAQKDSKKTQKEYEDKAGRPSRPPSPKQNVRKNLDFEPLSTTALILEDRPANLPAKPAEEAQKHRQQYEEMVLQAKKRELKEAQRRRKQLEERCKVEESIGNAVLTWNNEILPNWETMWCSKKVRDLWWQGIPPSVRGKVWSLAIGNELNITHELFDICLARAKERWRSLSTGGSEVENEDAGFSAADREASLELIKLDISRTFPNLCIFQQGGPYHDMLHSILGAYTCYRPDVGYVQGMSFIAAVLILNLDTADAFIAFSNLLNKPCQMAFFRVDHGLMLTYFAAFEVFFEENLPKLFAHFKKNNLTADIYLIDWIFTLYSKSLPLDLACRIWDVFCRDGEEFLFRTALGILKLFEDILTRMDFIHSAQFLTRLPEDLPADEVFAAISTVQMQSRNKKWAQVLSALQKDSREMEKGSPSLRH
UniProt Q8K0V2: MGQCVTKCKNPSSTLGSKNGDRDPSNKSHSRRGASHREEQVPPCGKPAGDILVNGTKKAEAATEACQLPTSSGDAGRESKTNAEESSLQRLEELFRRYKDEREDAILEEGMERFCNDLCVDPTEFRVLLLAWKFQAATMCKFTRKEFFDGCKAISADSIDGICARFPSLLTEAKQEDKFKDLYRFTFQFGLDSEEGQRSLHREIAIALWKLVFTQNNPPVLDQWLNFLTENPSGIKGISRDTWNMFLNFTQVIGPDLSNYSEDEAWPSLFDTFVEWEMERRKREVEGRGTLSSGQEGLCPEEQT
UniProt Q8CFX1: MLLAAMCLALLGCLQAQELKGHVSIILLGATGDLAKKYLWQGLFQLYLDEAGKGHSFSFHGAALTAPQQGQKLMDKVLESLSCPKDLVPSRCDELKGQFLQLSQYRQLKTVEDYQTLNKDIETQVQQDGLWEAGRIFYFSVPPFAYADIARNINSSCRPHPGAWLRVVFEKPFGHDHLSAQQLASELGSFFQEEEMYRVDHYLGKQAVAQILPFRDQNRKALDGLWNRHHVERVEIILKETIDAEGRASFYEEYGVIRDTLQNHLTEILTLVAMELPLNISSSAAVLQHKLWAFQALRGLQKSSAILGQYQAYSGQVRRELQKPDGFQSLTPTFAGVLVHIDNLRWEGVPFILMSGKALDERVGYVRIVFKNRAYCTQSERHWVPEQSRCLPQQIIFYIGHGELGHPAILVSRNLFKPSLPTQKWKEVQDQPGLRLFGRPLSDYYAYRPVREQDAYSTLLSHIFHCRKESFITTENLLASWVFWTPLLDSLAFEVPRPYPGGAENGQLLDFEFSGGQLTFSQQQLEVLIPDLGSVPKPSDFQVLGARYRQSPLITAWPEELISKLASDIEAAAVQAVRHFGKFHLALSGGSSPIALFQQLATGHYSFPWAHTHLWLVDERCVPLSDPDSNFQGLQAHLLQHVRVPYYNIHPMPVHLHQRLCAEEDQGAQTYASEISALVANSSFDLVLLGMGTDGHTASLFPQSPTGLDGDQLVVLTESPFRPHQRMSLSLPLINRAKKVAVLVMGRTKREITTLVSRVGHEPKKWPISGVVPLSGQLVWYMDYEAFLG
UniProt Q8CCH2: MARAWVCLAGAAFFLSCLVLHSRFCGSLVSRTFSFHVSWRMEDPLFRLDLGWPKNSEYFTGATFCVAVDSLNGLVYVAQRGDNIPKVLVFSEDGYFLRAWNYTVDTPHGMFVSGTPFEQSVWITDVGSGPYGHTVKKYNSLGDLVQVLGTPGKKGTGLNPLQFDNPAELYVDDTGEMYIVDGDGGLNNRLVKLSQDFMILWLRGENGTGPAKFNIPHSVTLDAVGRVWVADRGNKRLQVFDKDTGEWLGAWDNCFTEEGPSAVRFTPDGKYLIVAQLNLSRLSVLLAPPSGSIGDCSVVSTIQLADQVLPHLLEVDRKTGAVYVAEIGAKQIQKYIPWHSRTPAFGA
UniProt Q8JZL0: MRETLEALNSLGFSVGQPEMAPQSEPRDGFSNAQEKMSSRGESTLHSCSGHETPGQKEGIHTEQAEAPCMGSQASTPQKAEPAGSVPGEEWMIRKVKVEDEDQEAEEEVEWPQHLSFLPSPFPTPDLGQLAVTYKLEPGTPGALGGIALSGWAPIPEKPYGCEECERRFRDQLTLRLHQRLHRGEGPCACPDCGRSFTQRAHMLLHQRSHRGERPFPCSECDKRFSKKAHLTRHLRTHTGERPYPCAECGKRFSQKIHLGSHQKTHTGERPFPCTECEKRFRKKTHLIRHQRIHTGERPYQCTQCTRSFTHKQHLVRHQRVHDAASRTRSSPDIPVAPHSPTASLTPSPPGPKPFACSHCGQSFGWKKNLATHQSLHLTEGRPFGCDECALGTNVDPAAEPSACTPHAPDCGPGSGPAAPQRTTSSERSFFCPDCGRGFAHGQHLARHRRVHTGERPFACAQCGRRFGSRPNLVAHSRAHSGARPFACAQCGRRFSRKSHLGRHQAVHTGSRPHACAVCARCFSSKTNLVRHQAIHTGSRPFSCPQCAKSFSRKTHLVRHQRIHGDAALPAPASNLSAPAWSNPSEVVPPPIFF
UniProt Q8CI51: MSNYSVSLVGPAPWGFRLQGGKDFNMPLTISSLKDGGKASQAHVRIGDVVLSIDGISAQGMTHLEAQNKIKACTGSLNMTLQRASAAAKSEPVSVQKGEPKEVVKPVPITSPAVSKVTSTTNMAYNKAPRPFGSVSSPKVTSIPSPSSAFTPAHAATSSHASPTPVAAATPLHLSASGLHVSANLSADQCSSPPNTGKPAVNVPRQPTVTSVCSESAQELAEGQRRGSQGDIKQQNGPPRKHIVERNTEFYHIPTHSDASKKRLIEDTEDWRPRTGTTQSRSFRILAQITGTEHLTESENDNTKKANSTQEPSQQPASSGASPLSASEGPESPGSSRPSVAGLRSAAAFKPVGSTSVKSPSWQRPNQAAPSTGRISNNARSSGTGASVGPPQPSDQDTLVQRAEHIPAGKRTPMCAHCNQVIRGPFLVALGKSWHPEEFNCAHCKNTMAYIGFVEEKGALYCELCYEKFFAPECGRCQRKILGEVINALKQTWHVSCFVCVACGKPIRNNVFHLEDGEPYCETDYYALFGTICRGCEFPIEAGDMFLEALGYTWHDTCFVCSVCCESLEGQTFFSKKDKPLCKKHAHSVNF
UniProt Q8CDN6: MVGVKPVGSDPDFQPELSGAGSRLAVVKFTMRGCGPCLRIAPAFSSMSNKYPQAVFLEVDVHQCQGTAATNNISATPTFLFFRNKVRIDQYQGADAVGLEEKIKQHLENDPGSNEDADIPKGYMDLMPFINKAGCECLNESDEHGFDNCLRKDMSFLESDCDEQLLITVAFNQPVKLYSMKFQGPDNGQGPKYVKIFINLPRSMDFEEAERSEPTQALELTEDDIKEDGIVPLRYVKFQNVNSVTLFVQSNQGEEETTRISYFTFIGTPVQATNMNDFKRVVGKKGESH
UniProt Q8CIM8, whole entry: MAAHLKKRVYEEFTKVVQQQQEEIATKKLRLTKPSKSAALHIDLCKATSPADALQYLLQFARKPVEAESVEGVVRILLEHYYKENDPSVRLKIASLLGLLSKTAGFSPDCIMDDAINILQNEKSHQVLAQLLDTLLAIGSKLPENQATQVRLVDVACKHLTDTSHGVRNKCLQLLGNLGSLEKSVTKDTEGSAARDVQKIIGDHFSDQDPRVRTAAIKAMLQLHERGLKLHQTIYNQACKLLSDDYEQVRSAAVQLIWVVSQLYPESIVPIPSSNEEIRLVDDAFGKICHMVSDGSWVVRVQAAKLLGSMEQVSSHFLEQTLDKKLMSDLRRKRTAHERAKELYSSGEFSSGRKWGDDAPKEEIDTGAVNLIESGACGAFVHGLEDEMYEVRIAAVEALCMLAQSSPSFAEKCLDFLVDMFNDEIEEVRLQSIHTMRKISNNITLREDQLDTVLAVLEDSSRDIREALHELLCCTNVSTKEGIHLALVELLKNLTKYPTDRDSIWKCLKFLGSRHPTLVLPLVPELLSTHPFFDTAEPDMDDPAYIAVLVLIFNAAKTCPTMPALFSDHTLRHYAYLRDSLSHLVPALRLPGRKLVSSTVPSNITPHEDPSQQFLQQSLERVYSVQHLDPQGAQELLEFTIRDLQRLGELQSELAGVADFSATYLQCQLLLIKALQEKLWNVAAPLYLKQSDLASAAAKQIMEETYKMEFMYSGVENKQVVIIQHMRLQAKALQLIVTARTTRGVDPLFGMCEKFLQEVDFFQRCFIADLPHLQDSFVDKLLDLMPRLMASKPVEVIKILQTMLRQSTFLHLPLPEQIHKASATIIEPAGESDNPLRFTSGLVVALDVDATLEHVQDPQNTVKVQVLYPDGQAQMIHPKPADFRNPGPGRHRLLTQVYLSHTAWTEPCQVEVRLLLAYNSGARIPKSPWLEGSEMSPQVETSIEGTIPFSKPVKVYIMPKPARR
UniProt Q8CH72: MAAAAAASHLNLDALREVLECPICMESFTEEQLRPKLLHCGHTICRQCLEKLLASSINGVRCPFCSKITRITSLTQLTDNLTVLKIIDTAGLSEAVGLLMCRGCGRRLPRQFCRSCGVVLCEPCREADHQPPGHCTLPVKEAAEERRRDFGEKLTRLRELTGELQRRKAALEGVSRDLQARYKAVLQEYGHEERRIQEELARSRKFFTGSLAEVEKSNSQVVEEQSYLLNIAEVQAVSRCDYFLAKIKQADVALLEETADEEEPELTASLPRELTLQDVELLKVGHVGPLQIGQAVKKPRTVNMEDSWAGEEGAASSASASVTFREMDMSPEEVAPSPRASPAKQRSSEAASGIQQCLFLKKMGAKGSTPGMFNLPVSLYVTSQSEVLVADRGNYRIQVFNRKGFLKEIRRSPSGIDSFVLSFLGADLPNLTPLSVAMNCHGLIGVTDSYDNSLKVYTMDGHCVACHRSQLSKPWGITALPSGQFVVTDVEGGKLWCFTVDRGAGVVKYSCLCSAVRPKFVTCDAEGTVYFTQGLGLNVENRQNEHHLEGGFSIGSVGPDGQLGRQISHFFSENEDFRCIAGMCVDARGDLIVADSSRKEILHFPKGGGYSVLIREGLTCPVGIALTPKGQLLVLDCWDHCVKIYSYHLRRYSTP

Compound: CN[C@@H]1C[C@H]2O[C@@](C)([C@@H]1OC)n1c3ccccc3c3c4c(c5c6ccccc6n2c5c31)C(=O)NC4 [staurosporine]
Experiment: log2 fold change of tryptic peptide abundance, ligand vs vehicle (limited proteolysis) (log2 ratio); higher = more trypsin-susceptible (destabilized)
Details: ligand concentration: 20 uM; sample: mouse liver crude lysate; replicate design: treated separately

## UniProt Q8K0D5 (peptide sequence: IATMHEVK, peptide start residue: 74)
  log2 fold change: -0.289

## UniProt Q8CGA2 (peptide sequence: LFGKVPLR, peptide start residue: 263)
  log2 fold change: -0.288

## UniProt Q8K0V2 (peptide sequence: KAEAATEACQLPTSSGDAGR, peptide start residue: 58)
  log2 fold change: -0.0838

## UniProt Q8CFX1 (peptide sequence: QAVAQILPFR, peptide start residue: 206)
  log2 fold change: -0.412

## UniProt Q8CCH2 (peptide sequence: TGAVYVAEIGAK, peptide start residue: 319)
  log2 fold change: 0.0925

## UniProt Q8JZL0 (peptide sequence: GESTLHSCSGHETPGQK, peptide start residue: 41)
  log2 fold change: 0.218

## UniProt Q8CB44 (peptide sequence: GHLEIALLEK, peptide start residue: 133)
  log2 fold change: -0.273

## UniProt Q8CI51 (peptide sequence: VTSTTNMAYNKAPR, peptide start residue: 117)
  log2 fold change: 0.147

## UniProt Q8CDN6 (peptide sequence: AGCECLNESDEHGFDNCLRK, peptide start residue: 133)
  log2 fold change: -0.332

## UniProt Q8CIM8 (peptide sequence: ICHMVSDGSWVVR, peptide start residue: 288)
  log2 fold change: -0.648

## UniProt Q8CH72 (peptide sequence: VGHVGPLQIGQAVK, peptide start residue: 284)
  log2 fold change: -0.256
